Laboratory results: PubChem BioAssay AID504808 (Drosophila RNAi Screening Center, 2011)
The deposit covers about 21,000 reagents; this is a random part of those with a known target gene and a result. In the full data, 18 (0.084%) were called active. 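Raw counts without plate normalisation, one of two replicates; the ratio scores behind the calls were not deposited.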 Entries without a mark were called inactive. Names joined by + are all predicted targets of the reagent. Reagent sequences are not shown. Not stated in the record: the amount of reagent, the time to read-out.

Aim: 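Fly genes required to hold E2F transcription in check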 (primary screen)
System: Drosophila S2 cells
Reagents: long dsRNA against Drosophila genes
Read-out: 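Firefly luciferase driven by E2F sites, normalised to Renilla luciferase on the same minimal promoter, measured by plate reader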
Scale: E2F firefly: higher = more E2F reporter activity; Renilla normaliser: higher = more normaliser reporter signal
Call rule: 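a knock-down counted as active when the firefly/Renilla E2F signal rose above 50%, a threshold chosen arbitrarily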

gene | amplicon | E2F firefly, rep 1 | Renilla normaliser, rep 1
Cyp18a1 (Cytochrome P450 18a1) | DRSC20235 | 1.39e5 | 6269
CG15482 | DRSC02492 | 1.03e5 | 4217
CG7342 | DRSC16230 | 62714 | 3303
CG7737 | DRSC07033 | 3016 | 225
Dbp45A (DEAD box protein 45A) | DRSC07395 | 2545 | 192
CG42342 | DRSC13165 | 87178 | 2730
CG42342 | DRSC14378 | 41850 | 3388
CG42342 | DRSC15010 | 1.17e5 | 5741
CG42342 | DRSC15011 | 1.19e5 | 5664
CG42342 | DRSC15012 | 1.13e5 | 5795
CG31274 + MESK4 | DRSC13202 | 82220 | 2527
Spn88Ea (Serpin 88Ea) | DRSC17061 | 1.09e5 | 5506
CG14017 | DRSC02348 | 1.36e5 | 4702
CG13978 | DRSC14720 | 1.19e5 | 5709
CG42457 (retired record) + cpo | DRSC13273 | 77299 | 2919
CG42457 (retired record) + cpo | DRSC14503 | 50437 | 4176
CG42457 (retired record) + cpo | DRSC15327 | 1.02e5 | 4650
CG42457 (retired record) + cpo | DRSC16926 | 59467 | 3589
CG33502 + CG32857 + CG32500 | DRSC20817 | 81459 | 2824
CG33502 + CG32857 + CG32500 | DRSC21038 | 1.37e5 | 7171
CG34232 | DRSC05332 | 1.26e5 | 5213
CG3091 | DRSC18274 | 1.19e5 | 5167
CG42729 | DRSC10236 | 1.70e5 | 7239
dod (dodo) | DRSC20577 | 1.35e5 | 6865
CG5921 | DRSC17431 | 81405 | 2365
CG5921 | DRSC18390 | 1.21e5 | 5280
CG4301 | DRSC19886 | 1.59e5 | 7009
Ccp84Ab | DRSC12587 | 1.11e5 | 7294
CG13361 | DRSC17896 | 83878 | 4462
CG42542 | DRSC15549 | 71676 | 3271
Tak1 (TGF-beta activated kinase 1) | DRSC20390 | 85000 | 2428
Tak1 (TGF-beta activated kinase 1) | DRSC20561 | 1.55e5 | 6599
Tak1 (TGF-beta activated kinase 1) | DRSC20562 | 1.32e5 | 6701
CG16972 | DRSC02550 | 87128 | 3467
BomBc2 (Bomanin Bicipital 2) | DRSC06502 | 1.40e5 | 5518
Dad | DRSC16642 | 61340 | 2668
pasi1 (pasiflora 1) | DRSC16299 | 1.23e5 | 5962
Orco (Odorant receptor co-receptor) | DRSC12358 | 1.36e5 | 6024
CG15533 | DRSC15069 | 1.32e5 | 6606
dlt (discs lost) | DRSC08705 | 83048 | 4059
nudE | DRSC09000 | 1.29e5 | 4974
nudE | DRSC10962 | 1.20e5 | 6760
Grik | DRSC15846 | 70661 | 3195
Grik | DRSC15847 | 1.39e5 | 6614
Topors (Topoisomerase I-interacting protein) | DRSC06531 | 65939 | 3305
Tpl94D (Transition protein-like 94D) | DRSC13593 | 82364 | 2529
CG10459 | DRSC05991 | 1.47e5 | 5351

Reformatted: results already given
gene,amplicon,"E2F firefly, rep 1","Renilla normaliser, rep 1"
Orco (Odorant receptor co-receptor),DRSC12358,1.36e5,6024
CG15533,DRSC15069,1.32e5,6606
dlt (discs lost),DRSC08705,83048,4059
nudE,DRSC09000,1.29e5,4974
nudE,DRSC10962,1.20e5,6760
Grik,DRSC15846,70661,3195
Grik,DRSC15847,1.39e5,6614

Additional reagents:
gene | amplicon | E2F firefly, rep 1 | Renilla normaliser, rep 1
Pkd2 (Polycystic kidney disease 2) | DRSC02962 | 97662 | 3445
CG5080 | DRSC00677 | 78794 | 3627
CG9646 | DRSC07342 | 1.54e5 | 5239
CG14020 | DRSC02350 | 1.51e5 | 4941
Rcd5 (Reduction in Cnn dots 5) | DRSC08180 | 89858 | 3835
ApepP (Aminopeptidase P) | DRSC01866 | 78158 | 2799
CG12128 + CG1407 | DRSC06446 | 2835 | 235
CG34347 | DRSC14047 | 85755 | 2554
CG34347 | DRSC14305 | 1.03e5 | 5079
CG34347 | DRSC15104 | 81876 | 4040
CG34347 | DRSC15105 | 36020 | 2741
CG13589 | DRSC04225 | 1.12e5 | 4296
glu (gluon) | DRSC03539 | 82178 | 3229
Spn42De (Serpin 42De) | DRSC05011 | 1.45e5 | 4287
LPCAT (Lysophosphatidylcholine acyltransferase) | DRSC18157 | 1.24e5 | 5043
LPCAT (Lysophosphatidylcholine acyltransferase) | DRSC18257 | 1.17e5 | 5757
Snr1 (Snf5-related 1) | DRSC12369 | 71365 | 4353
Kots (Kotsubu) | DRSC16581 | 77581 | 3666
TwdlK (TweedleK) | DRSC16045 | 78636 | 6918
CG14034 | DRSC02359 | 1.62e5 | 5788
CG5854 | DRSC15894 | 59800 | 4156
Tsp2A (Tetraspanin 2A) | DRSC18584 | 97816 | 5124
CG10907 | DRSC09804 | 1.37e5 | 8380
CG3191 | DRSC18530 | 1883 | 896
Dh31-R (Diuretic hormone 31 Receptor) | DRSC06647 | 95577 | 4316
Dh31-R (Diuretic hormone 31 Receptor) | DRSC06669 | 98061 | 4580
pnt (pointed) | DRSC17028 | 59546 | 4743
CG3534 | DRSC15494 | 1.35e5 | 6573
CG13230 | DRSC06350 | 93857 | 4187
CG17600 | DRSC20638 | 1.38e5 | 5773
CG17600 | DRSC20640 | 1.32e5 | 6481
CG17752 | DRSC15262 | 1.49e5 | 8074
CG12702 | DRSC19487 | 1.30e5 | 6170
Smg6 | DRSC16029 | 69316 | 3912
CG18081 | DRSC10294 | 1.59e5 | 7925
CG7294 | DRSC03041 | 1.34e5 | 4609
CG4480 | DRSC02750 | 1.05e5 | 4231
